The text below walks through data of publication PMC9527583.

This assay has as its target T1, TRAF4-Omni (tumor necrosis factor receptor-associated factor 4, whole length) (human) (UniProt Q9BUZ4).
T1 sequence: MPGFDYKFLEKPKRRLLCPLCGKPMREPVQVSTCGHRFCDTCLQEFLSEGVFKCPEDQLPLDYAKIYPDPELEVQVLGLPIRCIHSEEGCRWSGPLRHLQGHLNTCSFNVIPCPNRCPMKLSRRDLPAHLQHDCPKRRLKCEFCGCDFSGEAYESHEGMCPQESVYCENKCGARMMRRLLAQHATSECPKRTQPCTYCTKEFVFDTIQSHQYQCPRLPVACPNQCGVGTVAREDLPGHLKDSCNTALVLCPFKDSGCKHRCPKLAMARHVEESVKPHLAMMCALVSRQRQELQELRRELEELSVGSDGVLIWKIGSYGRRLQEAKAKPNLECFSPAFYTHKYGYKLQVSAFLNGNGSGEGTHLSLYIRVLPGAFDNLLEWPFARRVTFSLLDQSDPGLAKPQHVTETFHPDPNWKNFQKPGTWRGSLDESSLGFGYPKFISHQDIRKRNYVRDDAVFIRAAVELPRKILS
Briefly: co-IP; HEK-293T cells cotransfected with pcDNA-TRAF4-Omni and pcDNA-MEKK3-M2, pcDNA-MEKK2-M2 or control plasmid; lysates immunoprecipitated with anti-Omni antibody, western blot; binding buffer 25 mM Tris-HCl pH 8.0, 150 mM NaCl, 1 mM EDTA, 0.5% Nonidet P-40. In general terms: In western blotting, separated proteins are transferred to a membrane and probed.

No constants are given. Whether binding was seen depends on the method and setting. In cells and extracts the contact can be indirect. Some entries that bind do so weakly or less than the wild type.

B1: MEKK2-M2 (protein, UniProt Q9Y2U5 1-619)
chain: MDDQQALNSIMQDLAVLHKASRPALSLQETRKAKSSSPKKQNDVRVKFEHRGEKRILQFPRPVKLEDLRSKAKIAFGQSMDLHYTNNELVIPLTTQDDLDKAVELLDRSIHMKSLKILLVINGSTQATNLEPLPSLEDLDNTVFGAERKKRLSIIGPTSRDRSSPPPGYIPDELHQVARNGSFTSINSEGEFIPESMDQMLDPLSLSSPENSGSGSCPSLDSPLDGESYPKSRMPRAQSYPDNHQEFSDYDNPIFEKFGKGGTYPRRYHVSYHHQEYNDGRKTFPRARRTQGTSLRSPVSFSPTDHSLSTSSGSSIFTPEYDDSRIRRRGSDIDNPTLTVMDISPPSRSPRAPTNWRLGKLLGQGAFGRVYLCYDVDTGRELAVKQVQFDPDSPETSKEVNALECEIQLLKNLLHERIVQYYGCLRDPQEKTLSIFMEYMPGGSIKDQLKAYGALTENVTRKYTRQILEGVHYLHSNMIVHRDIKGANILRDSTGNVKLGDFGASKRLQTICLSGTGMKSVTGTPYWMSPEVISGEGYGRKADIWSVACTVVEMLTEKPPWAEFEAMAAIFKIATQPTNPKLPPHVSDYTRDFLKRIFVEAKLRPSADELLRHMFVHYH
Regarding B1, the binding result is “no binding”.

B2: MEKK3-M2 (mitogen-activated protein kinase kinase kinase 3) (protein, UniProt Q99759 1-626)
chain: MDEQEALNSIMNDLVALQMNRRHRMPGYETMKNKDTGHSNRQSDVRIKFEHNGERRIIAFSRPVKYEDVEHKVTTVFGQPLDLHYMNNELSILLKNQDDLDKAIDILDRSSSMKSLRILLLSQDRNHNSSSPHSGVSRQVRIKASQSAGDINTIYQPPEPRSRHLSVSSQNPGRSSPPPGYVPERQQHIARQGSYTSINSEGEFIPETSEQCMLDPLSSAENSLSGSCQSLDRSADSPSFRKSRMSRAQSFPDNRQEYSDRETQLYDKGVKGGTYPRRYHVSVHHKDYSDGRRTFPRIRRHQGNLFTLVPSSRSLSTNGENMGLAVQYLDPRGRLRSADSENALSVQERNVPTKSPSAPINWRRGKLLGQGAFGRVYLCYDVDTGRELASKQVQFDPDSPETSKEVSALECEIQLLKNLQHERIVQYYGCLRDRAEKTLTIFMEYMPGGSVKDQLKAYGALTESVTRKYTRQILEGMSYLHSNMIVHRDIKGANILRDSAGNVKLGDFGASKRLQTICMSGTGMRSVTGTPYWMSPEVISGEGYGRKADVWSLGCTVVEMLTEKPPWAEYEAMAAIFKIATQPTNPQLPSHISEHGRDFLRRIFVEARQRPSAEELLTHHFAQLMY
With B2, the binding result is recorded as “binds”.
